Data as given in US20190309093A1.
These are yes or no findings as the source states them, for the method shown. Some results given as binding are weak or reduced against the parent protein; the word gives no strength.

Sequences of proteins named here, by UniProt entry; tags and fusion partners are left off.
UniProt Q9NZQ7: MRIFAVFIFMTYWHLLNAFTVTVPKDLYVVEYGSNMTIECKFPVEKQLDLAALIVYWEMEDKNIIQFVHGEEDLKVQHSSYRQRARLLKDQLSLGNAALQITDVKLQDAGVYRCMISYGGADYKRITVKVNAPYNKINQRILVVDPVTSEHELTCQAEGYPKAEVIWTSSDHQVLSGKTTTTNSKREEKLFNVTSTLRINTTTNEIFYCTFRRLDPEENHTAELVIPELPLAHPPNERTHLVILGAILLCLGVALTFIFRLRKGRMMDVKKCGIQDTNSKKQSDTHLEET

Target: human PD-L1 (human) (UniProt Q9NZQ7)
Experiment: label-free kinetics on OCTET QKe, PD-L1 on AHC biosensor

binding: binds
B1: YBL-007 (antibody, V domains shown)
VH: QMQLVQSGAEVKKPGSSVKVSCKASGGTFSSYAISWVRQAPGQGLEWMGRIIPILGIANYAQKFQGRVTITADKSTSTAYMELSSLRSEDTAVYYCAKPRDGYNLVAFDIWGQGTMVTVSS
VL: QLVLTQPPSVSGAPGQRVTISCTGSSSNIGAGYDVHWYQQLPGAAPKLLIYGDINRPSGVPDRFSGSKSGISASLAITGLQAEDEADYYCQSYDSSLSGGVFGGGTKLTVLR
